Results published in article PMC10301001 (Pharmaceuticals, 2023).

Experiments:
[1] = general procedure: Fmoc solid-phase peptide synthesis; 2-chlorotrityl chloride resin (loading 0.7 mmol/g); HBTU, Oxyma pure, DIPEA (SPPS); HATU, DIPEA (chelator conjugation); conditions: for final LC-MS purity: LC-MS (Agilent 1260 Infinity II LC/MSD XT, Poroshell 120 EC-C18)
[2] = general procedure: Fmoc solid-phase peptide synthesis; 2-chlorotrityl chloride resin; HBTU, Oxyma pure, DIPEA (SPPS); HATU, DIPEA (chelator conjugation); conditions: whole synthesis, scale 0.1 mmol
[3] = whole synthesis, scale of the general procedure 0.1 mmol

EuK(Ahx-Sta-Phe-Asp-3p-C-NETA)
step yield ([1]; late stage modification step): 65% | final LC-MS purity ([1]; late stage modification step): > 95% | isolated yield ([1]; whole synthesis, overall, scale of the general procedure 0.1 mmol): approximately 10% | difficulty met [1, 3]: some degradation of the compound during the acidic cleavage

EuK(Ahx-Sta-Phe-Asp)
final LC-MS purity [1, 3]: > 99% | isolated mass [2]: 21.8 mg | isolated yield [2]: 25%

EuK(Ahx-Sta-Phe-Asp-3p-C-NETA(tBu)4)
conjugation yield ([1]; conjugation step): 15% | final LC-MS purity ([1]; conjugation step): > 95%
